Assay [1] addresses Sam68 (endogenous, LB17 mouse lymphoma cells) (mouse (endogenous in LB17)) (UniProt Q60749). Briefly: co-IP; LB17 mouse lymphoma cell lysate (50 mM Tris-HCl pH 8.0, 100 mM NaCl, 0.5% NP40), anti-Sam68 antibody C20 on protein A/G agarose, 4 C 1 h; immunoblot with anti-U2AF65; with or without RNase A (0.2 ug/ul) before and during precipitation. Background: In western blotting, separated proteins are transferred to a membrane and probed.

Amino acid sequences for entries named in this document (tags omitted). Residues count along the entry.
UniProt Q60749: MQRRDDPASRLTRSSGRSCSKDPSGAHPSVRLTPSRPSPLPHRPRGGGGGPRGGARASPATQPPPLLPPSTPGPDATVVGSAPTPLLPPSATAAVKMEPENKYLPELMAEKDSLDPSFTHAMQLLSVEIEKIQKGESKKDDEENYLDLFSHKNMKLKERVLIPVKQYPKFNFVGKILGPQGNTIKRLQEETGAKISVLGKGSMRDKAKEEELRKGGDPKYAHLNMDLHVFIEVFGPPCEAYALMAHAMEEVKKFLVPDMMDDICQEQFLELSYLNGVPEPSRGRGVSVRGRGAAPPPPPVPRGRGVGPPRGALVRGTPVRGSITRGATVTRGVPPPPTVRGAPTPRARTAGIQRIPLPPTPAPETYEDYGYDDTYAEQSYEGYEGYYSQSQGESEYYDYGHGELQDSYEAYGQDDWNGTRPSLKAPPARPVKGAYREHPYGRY
UniProt P26368, residues 2-475: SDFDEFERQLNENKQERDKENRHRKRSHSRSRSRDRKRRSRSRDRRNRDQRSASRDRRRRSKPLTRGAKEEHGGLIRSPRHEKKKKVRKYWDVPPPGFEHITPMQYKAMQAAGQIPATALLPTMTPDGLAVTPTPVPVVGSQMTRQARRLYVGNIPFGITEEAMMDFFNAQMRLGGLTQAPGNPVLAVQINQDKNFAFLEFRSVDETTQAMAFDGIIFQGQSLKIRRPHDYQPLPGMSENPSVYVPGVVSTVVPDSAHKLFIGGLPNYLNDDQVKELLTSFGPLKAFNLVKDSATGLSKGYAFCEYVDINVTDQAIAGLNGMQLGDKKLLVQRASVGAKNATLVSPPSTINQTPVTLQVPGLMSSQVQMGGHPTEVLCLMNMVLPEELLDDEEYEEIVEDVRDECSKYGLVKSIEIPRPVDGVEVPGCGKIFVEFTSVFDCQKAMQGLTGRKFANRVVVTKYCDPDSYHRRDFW
UniProt P26369: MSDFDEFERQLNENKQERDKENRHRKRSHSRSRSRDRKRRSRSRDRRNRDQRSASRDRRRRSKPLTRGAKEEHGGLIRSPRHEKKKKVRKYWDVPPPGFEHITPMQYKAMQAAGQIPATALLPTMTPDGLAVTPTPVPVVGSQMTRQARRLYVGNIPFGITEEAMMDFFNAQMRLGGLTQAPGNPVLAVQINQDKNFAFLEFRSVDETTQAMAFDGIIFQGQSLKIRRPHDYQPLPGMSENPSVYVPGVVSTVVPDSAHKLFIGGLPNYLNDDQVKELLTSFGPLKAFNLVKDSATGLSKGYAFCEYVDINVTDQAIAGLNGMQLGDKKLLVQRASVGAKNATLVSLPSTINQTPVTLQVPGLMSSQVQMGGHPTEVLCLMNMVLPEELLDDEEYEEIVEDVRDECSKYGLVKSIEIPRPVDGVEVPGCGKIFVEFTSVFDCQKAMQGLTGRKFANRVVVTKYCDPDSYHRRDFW

The target of assay [2] is T1, GST-fusion protein of U2AF35 (human) (UniProt Q01081).
T1 sequence: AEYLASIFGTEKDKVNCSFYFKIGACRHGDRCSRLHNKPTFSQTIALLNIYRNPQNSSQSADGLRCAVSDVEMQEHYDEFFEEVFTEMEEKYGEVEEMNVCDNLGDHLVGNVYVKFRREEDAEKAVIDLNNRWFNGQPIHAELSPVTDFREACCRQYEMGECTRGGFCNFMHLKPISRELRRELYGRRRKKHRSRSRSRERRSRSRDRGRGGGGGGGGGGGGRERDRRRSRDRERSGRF
Briefly: pull-down; data not shown: GST-fusions of U2AF65 and U2AF35 with recombinant Sam68 left unphosphorylated or phosphorylated by ERK in vitro; both purified.

The target of assay [3] is GST-fusion protein of U2AF65 (human) (UniProt P26368). Described as above.
Assay [4] deals with T1, GST-fusion protein of U2AF35 (human). As to the kind of experiment: pull-down; 0.5-1 ug GST-U2AF fusion protein or GST with 100 or 200 ng His-Sam68 in 50 ul binding buffer (10 mM HEPES pH 7.9, 150 mM KCl, 0.1% NP40, 0.5 mg/ml BSA, 1 mM DTT, 1 mM PMSF), 30 C 1 h; glutathione sepharose at room temperature 90 min; immunoblot with anti-Sam68; both purified.
Assay [5] has as its target GST-fusion protein of U2AF65 (human) (UniProt P26368). Described as above.

No constants are given. Whether binding was seen depends on the method and setting. For some of these results: Binding seen in cells or lysates may run through a third protein. Some binding calls cover weakened binding; strength is not graded here. For some of these results: Where a sequence is shown, tags or fusion partners need not be part of it.

On to “U2AF65 (endogenous, LB17 mouse lymphoma cells) (from UniProt P26369 1-475)”, for which the binding result in assay [1] is “binds”.

“recombinant His-tagged Sam68 (from UniProt Q60749 1-443)”: the binding result in assay [2], in assay [3], in assay [4] and in assay [5] was “binds” in each case.

On to “recombinant Sam68 phosphorylated by ERK in vitro (from UniProt Q60749 1-443)”, for which the binding entry in assay [2] and in assay [3] was “binds” each time.

The record behind these values is paper PMC2169300, “Signal-Regulated Pre-mRNA Occupancy by the General Splicing Factor U2AF”.
